Several values for one entry are separate records, joined by “and”; a condition that tells them apart may be missing. Equal entries are not always repeated. The list shows a part of the results. Shown are side measurements of this screen, not its main read-out; they come without a call. The list favours compounds with an active or inconclusive main result. Words in brackets tell the shape of the fitted curve; partial curves, single points and poor fits give uncertain potencies.

A short description of the experiment: qHTS Assay for Modulators of Lamin A Splicing. Particulars: HeLa LMNA splicing GFP/RFP minigene ratio, 48 h. Put shortly: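 S3 HeLa stable clones carrying a lamin A-EGFP splicing minigene plus DsRed2 were seeded at 600 cells/well in Opti-MEM with 2% FBS, pin-dosed and incubated 48 h at 37°C. Acumen cytometry (488 nm) gave the GFP/RFP total-intensity ratio.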
(In general: qHTS replaces the single test concentration by a dilution series.)

Where [1] appears, read: measured here: GFP splicing reporter channel.
Where [2] appears, read: measured here: RFP viability control channel.

One may read the AC50 as the concentration at which the activity in the assay is half-maximal. For the compound `O=[N+]([O-])c1c(NCCCO)cc(N2CCN(Cc3ccc4c(c3)OCO4)CC2)c2nonc12`, the AC50 under setting [1] is 20 µM [rising, single point] and the AC50 under setting [2] was 35.5 µM [rising, single point].
Consider `CC(=O)c1ccc(NC(=O)COC(=O)CCC(=O)c2cccs2)cc1`, for which the AC50 under setting [2] was 0.794 µM [rising, full curve].
Consider `COc1cccc2sc(Nc3nc4ccc(NC(C)=O)cc4s3)nc12`, for which the AC50 under setting [1] was 6.31 µM [rising, partial curve] and the AC50 under setting [2] was 12.6 µM [rising, partial curve].
Take `CCn1cc(C(=O)Nc2ccc(C)cc2C)c(=O)c2ccc(C)nc21`: the AC50 under setting [1] was 5.62 µM [rising, partial curve, poor fit].
Turning to `C[C@H](NC(=O)OC(C)(C)C)c1nnc(SCC(=O)c2ccc(Cl)cc2)o1`, the AC50 is 14.1 µM [rising, single point] under setting [1] and 17.8 µM [rising, single point] under setting [2].
Consider `Cc1nc2c(C(=O)NCCc3ccc(Cl)cc3)cnn2c(C)c1Cc1ccc(F)cc1`, for which the AC50 under setting [1] was 11.2 µM [falling, partial curve, poor fit] and the AC50 under setting [2] was 25.1 µM [falling, partial curve].
In the case of `COc1ccccc1-c1c(C(F)(F)F)oc2cc(OS(C)(=O)=O)ccc2c1=O`, the AC50 was 11.2 µM [rising, single point] under setting [1] and 11.2 µM [rising, partial curve] under setting [2].
`Cc1nnc(NC(=O)Nc2cccc(Cl)c2)s1`: the AC50 under setting [2] was 20 µM [rising, single point].
On the same count and under the same terms, for `CC/C(=N\NC(=S)Nc1cc(C)ccc1C)c1ccc(OC(F)F)cc1` the value was 20 µM [rising, partial curve].
Regarding `O=C(NC(=S)Nc1c(Cl)ccc2nsnc12)c1ccco1`, under setting [1], the AC50 was 0.0355 µM [rising, full curve, poor fit].
Turning to `CC(=O)c1ccc(-n2nnnc2SCC(=O)N2CCc3ccccc3C2)cc1`, under setting [2], the AC50 was 17.8 µM [rising, single point].
Consider `COc1cc2c(cc1OC)CN(c1nc(CN3CCOCC3)nc3sc4c(c13)CCCC4)CC2`, for which the AC50 under setting [1] was 11.2 µM [falling, single point].
Still for that read-out and setting: for `NNC(=O)COc1ccccc1[N+](=O)[O-]` the value was 12.6 µM [falling, partial curve, poor fit].
Consider `Cc1cccc(NC(=O)Cn2c(=O)c3cccn3c3ccccc32)c1C`, for which the AC50 under setting [2] is 22.4 µM [rising, partial curve, poor fit].
On to `CCSc1nnc(NC(=O)C2Cc3ccccc3CN2S(=O)(=O)CC)s1` (stereo not given), for which, under setting [2], the AC50 was 35.5 µM [rising, single point].
Take `COc1cc(NS(=O)(=O)c2cc(Br)cc3c2N(C(=O)C2CC2)CC3)cc(OC)c1`: the AC50 is 7.94 µM [falling, partial curve] under setting [1] and 5.62 µM [falling, partial curve, poor fit] under setting [2].
Consider `CN(C)c1nc(N(C)C)nc(N(C)C)n1`, for which the AC50 reads like this: under setting [1], 14.1 µM [falling, single point] and 4.47 nM [falling, full curve, poor fit]; under setting [2], 0.794 µM [falling, full curve].
In the case of `CCC(=O)Nc1nonc1-c1nc2ccccc2n1CCC(C)C`, the AC50 under setting [1] is 35.5 µM [rising, single point] and the AC50 under setting [2] is 35.5 µM [rising, single point].
Consider `Cn1c(=O)cc(SCC(=O)N2CCN(Cc3ccc4c(c3)OCO4)CC2)c2ccccc21`, for which the AC50 under setting [2] is 12.6 µM [rising, single point].
On to `O=[N+]([O-])c1ccccc1S(=O)(=O)N1CCc2ccccc2C1`, for which the AC50 under setting [2] is 0.02 µM [falling, full curve, poor fit].
Regarding `COc1cccc(C(=O)CN2C3=NCCCN3c3ccccc32)c1`, the AC50 is 11.2 µM [rising, partial curve, poor fit] under setting [1] and 11.2 µM [rising, partial curve] under setting [2].
Regarding `COC(=O)C1=C(Nc2ccc(C)cc2)C=C(C)C(C(=O)OC)C1c1cccc(OC)c1` (stereo not given), under setting [2], the AC50 was 5.62 µM [rising, single point].
`O=P(O)(O)OC[C@H](O)CO`: under setting [1], the AC50 was 0.0224 µM [falling, full curve, poor fit].
`CCOc1ccccc1NC(=S)N(CCCN1CCOCC1)Cc1cn(C)c2ccccc12`: under setting [2], the AC50 is 22.4 µM [rising, single point].
On to `COc1cc(C2c3cc4c(cc3C(O[C@@H]3OC5COC(c6cccs6)OC5C(O)C3O)C3COC(=O)C23)OCO4)cc(OC)c1O` (stereo not given in full), for which the AC50 under setting [1] was 0.562 µM [rising, single point].
`Cc1cccc(OCC(=O)Nc2ccc(C(=O)c3ccc(C(=O)O)cc3)cc2)c1`: under setting [2], the AC50 is 12.6 µM [falling, partial curve, poor fit].
On to `O=[N+]([O-])c1ccc(CSc2ncnc3c2ncn3[C@@H]2O[C@H](CO)[C@H](O)[C@H]2O)cc1`, for which the AC50 under setting [2] was 0.000891 µM [falling, full curve, poor fit].
For the compound `CCn1c(SCC(=O)Nc2c(C)cccc2C)nnc1-c1nonc1NC(C)=O`, the AC50 under setting [1] was 2 µM [falling, partial curve, poor fit] and the AC50 under setting [2] is 3.16 µM [falling, partial curve].
As to `Nc1ccn([C@@H]2O[C@@H](CO)[C@@H](O)[C@H]2O)c(=O)n1`, the AC50 under setting [2] was 1 µM [rising, full curve, poor fit].
Same read-out and setting: then `C=CC1=C2C=C(C3CC3)N(Cc3ccc4c(c3)OCO4)C=C2C(=O)C(C)(OC(=O)c2ccco2)C1=O` (stereo not given), with 0.447 µM [falling, partial curve, poor fit].
Regarding `O=C(COC(=O)c1n[nH]c2ccccc12)c1cc(F)ccc1F`, under setting [1], the AC50 is 0.562 µM [rising, full curve, poor fit].
On to `CCC1C(=O)CC(c2ccccc2)NC1c1ccccc1` (stereo not given), for which, under setting [2], the AC50 is 20 µM [rising, single point].
With `COC(=O)CSc1nc2ccc(N)cc2s1`, the AC50 was 0.00447 µM [falling, full curve, poor fit] under setting [1] and 0.00316 µM [falling, full curve] under setting [2].
Regarding `COc1ccccc1/C=C(/CC(=O)NCc1ccc2c(c1)OCO2)c1nc2ccccc2s1`, the AC50 under setting [1] was 0.0398 µM [rising, full curve, poor fit] and the AC50 under setting [2] is 17.8 µM [rising, partial curve].
As to `CS(=O)(=O)N1CCc2cc(-c3csc(NC(=O)Cc4ccccc4)n3)ccc21`, the AC50 under setting [2] is 12.6 µM [rising, partial curve].
For the compound `CCCN1C(=O)C2(SC(NC(C)=O)=NN2C(C)=O)c2cc(C)ccc21` (stereo not given), the AC50 under setting [1] is 0.891 µM [rising, full curve].
`COc1cccc(N2CC(O)=C(c3nc4ccccc4s3)C2=N)c1`: the AC50 under setting [1] was 2.51 µM [falling, partial curve, poor fit] and the AC50 under setting [2] is 20 µM [falling, partial curve, poor fit].
Turning to `Nc1cc(N2CCCCC2)c(Cl)cc1[N+](=O)[O-]`, the AC50 under setting [2] is 10 µM [rising, partial curve, poor fit].
Regarding `O=C(c1ccccc1)c1nn(-c2ccc(Cl)cc2)c(=O)cc1C(F)(F)F`, the AC50 was 4.47 µM [falling, full curve] under setting [1] and 7.08 µM [falling, partial curve] under setting [2].
With `Cc1ccc(C(=O)OCC(=O)c2c[nH]c3ccccc23)cc1S(=O)(=O)N1CCCCC1`, the AC50 is 12.6 µM [rising, partial curve] under setting [1] and 25.1 µM [rising, single point] under setting [2].
As to `COc1ccc(Cc2nc3ccc(C(=O)NCc4ccccc4Cl)cc3o2)cc1`, the AC50 under setting [1] was 28.2 µM [falling, single point] and the AC50 under setting [2] is 0.01 µM [falling, full curve, poor fit].
With `COc1ccc(NC(=O)CSc2nnc(-c3cccs3)n2Cc2ccco2)cc1OC`, the AC50 under setting [2] was 8.91 µM [rising, partial curve, poor fit].
As to `CCN1CCN(c2ccc([N+](=O)[O-])cc2C(=O)c2ccc(Cl)cc2)CC1`, the AC50 was 5.62 µM [falling, single point] under setting [1] and 31.6 µM [falling, single point] under setting [2].
Take `O=C(NNC(=S)Nc1ccc(Cl)cc1)c1ccccc1OC(F)F`: the AC50 reads like this: under setting [1], 12.6 µM [rising, partial curve]; under setting [2], 11.2 µM [rising, partial curve].
For `CCN1CCc2c(C#N)c(N3CCCCC3)nc(N3CCOCC3)c2C1`, the AC50 reads like this: under setting [1], 17.8 µM [falling, single point]; under setting [2], 22.4 µM [falling, single point].
In the case of `CCOc1ccc(CC(=O)NCC(c2cccs2)S(=O)(=O)c2ccc(F)c(C)c2)cc1` (stereo not given), the AC50 is, setting by setting: under setting [1], 2.24 µM [rising, partial curve]; under setting [2], 4.47 µM [rising, single point].
`O=C(Nc1ncc(Cc2ccccc2)s1)c1cccs1`: the AC50 is 35.5 µM [rising, single point] under setting [1] and 35.5 µM [rising, single point] under setting [2].
As for `Cc1ccc(OCCCn2ccnc2)c([N+](=O)[O-])c1`, under setting [2], the AC50 was 5.62 µM [rising, partial curve, poor fit].
For `Cc1cccc(NC(=S)NCc2ccc3[nH]c4c(c3c2)CCCC4)c1`, the AC50 reads like this: under setting [1], 31.6 µM [rising, single point]; under setting [2], 35.5 µM [rising, single point].
For `Cc1cc(Cl)ccc1OCC(=O)NCCOC(=O)Nc1sc(=S)n(C)c1C`, under setting [2], the AC50 is 31.6 µM [rising, single point].
Turning to `O=c1nc2ccccc2c2n1CC(CN1CCN(C(c3ccccc3)c3ccccc3)CC1)N2` (stereo not given), under setting [1], the half-maximal activity concentration (AC50) was 11.2 µM [rising, partial curve, poor fit].
On to `Cc1ccc(Sc2c([N+](=O)[O-])c(C)nn2C)cc1`, for which the AC50 under setting [2] was 3.98 µM [falling, full curve, poor fit].
As for `CCC1(CC)Cc2ccccc2-c2nc(CN3CCOCC3)[nH]c(=O)c21`, the AC50 under setting [1] is 35.5 µM [rising, single point].

The record behind these values is PubChem BioAssay AID1487 (National Center for Advancing Translational Sciences (NCATS), 2009).
